{"source": "patent US9133220B2", "about": "“Boron-containing 5-arylidene-3,5-dihydro-4H-imidazol-4-ones” (Evrogen Joint Stock Company, priority 2012, dated 2015)", "key": {"[1]": {"assay": "Determination of solubility in water", "type": "physicochemical", "settings": "weakly alkaline pH values (anionic state)", "description": "To determine the solubility in water of compounds an excess amount of analyzed substance was put in a known volume of a solvent and stirred for 5 hours at r.t. The obtained mixture was centrifuged, and the concentration of a compound in mother liquor was measured with spectrophotometric method on the base of molar extinction coefficients data."}, "[2]": {"assay": "Determination of partition coefficient octanol-1/water", "type": "physicochemical", "settings": "anionic form, pH 10; decimal logarithm of concentration ratio; stated to show high hydrophilicity"}, "[3]": {"settings": "widely used fluorescent dyes; approximate values; cited from earlier work"}}, "note": "For some of these results: At least one compound was matched to its structure with a doubt left. Some results were stated once for a whole list of compounds, not compound by compound.", "data": [{"smiles": "CC1=N/C(=C\\c2cc(F)c(O)cc2B(F)F)C(=O)N1C", "note": "[F-p-HOBDI-BF2, (Z)-4-(2-(difluoroboryl)-5-fluoro-4-hydroxybenzylidene)-1,2-dimethyl-1H-imidazole-5(4H)-one]", "values": [{"measurement": "increase of solubility in water", "setting": "[1]", "value": "more than 10 fold"}, {"measurement": "partition coefficient water-octanol", "setting": "[2]", "value": "more than 4"}]}, {"smiles": "CC1=N/C(=C\\c2cc(F)c(O)c(F)c2B(F)F)C(=O)N1C", "note": "[di-F-p-HOBDI-BF2, (Z)-4-(2-(difluoroboryl)-3,5-difluoro-4-hydroxybenzylidene)-1,2-dimethyl-1H-imidazole-5(4H)-one]", "values": [{"measurement": "increase of solubility in water", "setting": "[1]", "value": "more than 10 fold"}, {"measurement": "partition coefficient water-octanol", "setting": "[2]", "value": "more than 4"}]}, {"smiles": "O=C1OC2(c3ccc(O)cc3Oc3cc(O)ccc32)c2ccccc21", "note": "[fluorescein]", "values": [{"measurement": "emission peak", "setting": "[3]", "value": 519, "unit": "nm"}]}, {"smiles": "CC1=N/C(=C\\c2ccc(O)cc2B(F)F)C(=O)N1C", "note": "[p-HOBDI-BF2, (Z)-4-(2-(difluoroboryl)-4-hydroxybenzylidene)-1,2-dimethyl-1H-imidazole-5(4H)-one]", "values": [{"measurement": "increase of solubility in water", "setting": "[1]", "value": "more than 10 fold"}, {"measurement": "partition coefficient water-octanol", "setting": "[2]", "value": "more than 4"}]}]}
